The values that follow come from PubChem BioAssay AID330 (DTP/NCI, 2004).

The list does not hold the whole screen: it is rich in T/C values a quarter to a half above the control, in often repeated tests (any T/C) and in doses without a T/C. Further doses and runs are listed elsewhere. T/C: endpoint of the treated group in % of that of the vehicle group. Some doses have a count of surviving animals in place of a T/C: the source files T/C as zero there, which appears to mark a toxic dose or a test without result, not a measured value. Some survivor counts are full or nearly so, which does not show that the dose was tolerated: the source hardly ever lists a survival T/C far under the control, and the zero likely stands for such cases as well. Counts of survivors are from the toxicity check (mostly the fifth day) where no day follows; animals may have died later. Schedule codes are those of the source, read here as Q, the interval in days (D) or hours (H), X, the number of doses. Some molecules as drawn cover several salts, stereoisomers or complexes of the source; a dose is that of the sample tested. Some doses were run more than once; their values stand side by side, smallest first. For survival time, this PubChem deposit counts one and a half times the control or more as active, and values a quarter to a half above the control carry no call in these data; other NCI protocols may use other cut-offs.

The subject of the experiment is P388 leukemia ip, CD2F1 mice, survival T/C. The experiment is described as follows: NCI In Vivo Anticancer Drug Screen. Data for tumor model P388 Leukemia (intraperitoneal) in CD2F1 (CDF1) mice. Particulars: T/C endpoint: median survival time, higher T/C = longer survival.
Where [1] appears, read: dose: 50.0 mg/kg/injection, schedule: Q01DX005 (ip), vehicle: Klucel (hydroxypropylcellulose) (HPC).
Where [2] appears, read: dose: 100.0 mg/kg/injection, schedule: Q01DX005 (ip), vehicle: Klucel (hydroxypropylcellulose) (HPC).
Where [3] appears, read: dose: 200.0 mg/kg/injection, schedule: Q01DX005 (ip), vehicle: Klucel (hydroxypropylcellulose) (HPC).
Where [4] appears, read: dose: 200.0 mg/kg/injection, schedule: Q04DX003 (ip), vehicle: Klucel (hydroxypropylcellulose) (HPC).
Where [5] appears, read: dose: 400.0 mg/kg/injection, schedule: Q04DX003 (ip), vehicle: Klucel (hydroxypropylcellulose) (HPC).
The mark [6] stands for this setting: dose: 200.0 mg/kg/injection, schedule: Q04DX003 (ip), vehicle: saline with Tween-80.
The mark [7] stands for this setting: dose: 400.0 mg/kg/injection, schedule: Q04DX003 (ip), vehicle: saline with Tween-80.
[8] abbreviates: dose: 15.0 mg/kg/injection, schedule: Q01DX005 (ip), vehicle: saline.
Where [9] appears, read: dose: 240.0 mg/kg/injection, schedule: Q01DX005 (ip), vehicle: saline.
[10] abbreviates: dose: 400.0 mg/kg/injection, schedule: Q01DX009 (ip), vehicle: water.

On to `Cc1ccc(NCCNCCO)c2c(=O)c3ccccc3sc12`, for which the T/C is 138 % of control (dose: 30.0 mg/kg/injection, schedule: Q01DX009 (ip), vehicle: distilled water + Tween-80); 136 % of control (dose: 30.0 mg/kg/injection, schedule: Q01DX009 (ip), vehicle: water); 130 % of control under setting [1]; 148 % of control (dose: 60.0 mg/kg/injection, schedule: Q01DX009 (ip), vehicle: distilled water + Tween-80); 142 % of control under setting [2]. In addition, the survivor count was 0 of 6 (dose: 50.0 mg/kg/injection, schedule: Q01DX005 (ip), vehicle: other); 2 of 6 (dose: 60.0 mg/kg/injection, schedule: Q01DX009 (ip), vehicle: water); 0 of 6 (dose: 100.0 mg/kg/injection, schedule: Q01DX005 (ip), vehicle: other); 5 of 6 under setting [3]; 0 of 6 (dose: 200.0 mg/kg/injection, schedule: Q01DX005 (ip), vehicle: other); 0 of 6 (dose: 400.0 mg/kg/injection, schedule: Q01DX005 (ip), vehicle: Klucel (hydroxypropylcellulose) (HPC)). For the same molecule, where the note is “dose: 400.0 mg/kg/injection, schedule: Q01DX005 (ip), vehicle: other”, the survivor count is 0 of 6.
Take `O=c1ccn(C2CCCCC2)c(=O)[nH]1`: the survivor count was 0 of 6 under setting [1], 0 of 6 under setting [2] and 0 of 6 under setting [3].
For the molecule `C/C(=N\NC(=S)N(C)C)c1ncccn1`, the survivor count runs as follows: (dose: 100.0 mg/kg/injection, schedule: Q04DX003 (ip), vehicle: Klucel (hydroxypropylcellulose) (HPC)) 1 of 6; under setting [4], 0 of 6; under setting [5], 0 of 6.
Regarding `CC(C)NC(=O)OCc1c(COC(=O)NC(C)C)c(-c2ccc(Cl)cc2)n2c1CCC2`, the T/C (dose: 25.0 mg/kg/injection, schedule: Q01DX005 (ip), vehicle: distilled water + Tween-80) is 136 % of control. Further, the survivor count (dose: 100.0 mg/kg/injection, schedule: Q01DX005 (ip), vehicle: distilled water + Tween-80) is listed as 6 of 6 and the survivor count (dose: 200.0 mg/kg/injection, schedule: Q01DX005 (ip), vehicle: distilled water + Tween-80) is listed as 5 of 6.
As for `CSc1nc(Cl)c(Br)c(Sc2nc(N)nc3nc[nH]c23)n1`, the T/C by setting is: (dose: 132.0 mg/kg/injection, schedule: Q04DX003 (ip), vehicle: saline with Tween-80) 145 % of control; under setting [6], 140 % of control; (dose: 300.0 mg/kg/injection, schedule: Q04DX003 (ip), vehicle: saline with Tween-80) 135 % of control. The survivor count is listed as 6 of 6 (dose: 200.0 mg/kg/injection, schedule: Q01DX009 (ip), vehicle: saline with Tween-80) and 6 of 6 under setting [7].
On to `Nc1cc(S(=O)(=O)F)ccc1Cl`, for which, under setting [7], the survivor count is given as 4 of 6.
Regarding `O=C(Nc1ccc(Br)cn1)c1sc2ccccc2c1Cl`, the survivor count (dose: 50.0 mg/kg/injection, schedule: Q01DX009 (ip), vehicle: saline with Tween-80) is listed as 6 of 6.
For the molecule `Cc1c(C#N)c(N)nc2c(C(N)=O)nsc12`, the survivor count is recorded as 6 of 6 under setting [2] and 6 of 6 under setting [3].
`CN(C)c1ccc(C(=C2C=CC(=Nc3ccccc3)c3ccccc32)c2ccc(N(C)C)cc2)cc1`: the survivor count reads like this: (dose: 25.0 mg/kg/injection, schedule: Q01DX005 (ip), vehicle: Klucel (hydroxypropylcellulose) (HPC)) 4 of 6; under setting [1], 0 of 5; under setting [2], 0 of 5; under setting [3], 0 of 5.
As to `C1=CC2(C=CC13OCCO3)OCCO2`, the survivor count is, setting by setting: under setting [4], 3 of 6; under setting [5], 2 of 6.
On to `C[CH2][Sn]([CH2]C)([S]CCS(=O)(=O)O)[S]CCS(=O)(=O)O` (tested in a mixture with another compound), for which the T/C (dose: 1.87 mg/kg/injection, schedule: Q01DX005 (ip), vehicle: saline) is 130 % of control; the T/C (dose: 3.75 mg/kg/injection, schedule: Q01DX005 (ip), vehicle: saline) is 130 and 133 % of control; the T/C (dose: 7.5 mg/kg/injection, schedule: Q01DX005 (ip), vehicle: saline) is 125 % of control; the T/C under setting [8] was 131 % of control. In addition, the survivor count reads like this: under setting [8], 3 of 6; (dose: 60.0 mg/kg/injection, schedule: Q01DX005 (ip), vehicle: saline) 0 of 6; (dose: 120.0 mg/kg/injection, schedule: Q01DX005 (ip), vehicle: saline) 0 of 6; under setting [9], 0 of 6.
Take `CCOC(=O)CC(O)(c1ccc2c(c1)OCO2)c1cc(OC)c(OC)c(OC)c1` (stereo not given): the survivor count under setting [1] was 6 of 6.
As for `CCCCS(=O)(=O)CSC#N`, the survivor count (dose: 50.0 mg/kg/injection, schedule: Q01DX005 (ip), vehicle: saline with Tween-80) is 0 of 5; the survivor count (dose: 100.0 mg/kg/injection, schedule: Q01DX005 (ip), vehicle: saline with Tween-80) is listed as 0 of 5; the survivor count (dose: 200.0 mg/kg/injection, schedule: Q01DX005 (ip), vehicle: saline with Tween-80) is given as 0 of 5.
Consider `C=C(Cl)C(=NC(C)(C)C)Nc1ccccc1Cl`, for which the survivor count (dose: 100.0 mg/kg/injection, schedule: Q01DX005 (ip), vehicle: saline) is 1 of 6; the survivor count (dose: 200.0 mg/kg/injection, schedule: Q01DX005 (ip), vehicle: saline) was 0 of 6 and 1 of 6.
For the molecule `CCOC(=O)/C=C/C(=O)NN`, the survivor count reads like this: (dose: 12.5 mg/kg/injection, schedule: Q01DX009 (ip), vehicle: water) 6 of 6; (dose: 25.0 mg/kg/injection, schedule: Q01DX009 (ip), vehicle: water) 6 of 6; under setting [10], 4 of 6.
Take `O=C1c2cccc([N+](=O)[O-])c2C(=O)N1CC[P+](c1ccccc1)(c1ccccc1)c1ccccc1`: the survivor count (dose: 200.0 mg/kg/injection, schedule: Q01DX009 (ip), vehicle: water) was 0 of 6 and the survivor count under setting [10] was 0 of 6.
Regarding `Cc1nc2c([N+](=O)[O-])c(Nc3ccccc3)c([N+](=O)[O-])cc2[nH]1`, the survivor count under setting [6] was 0 of 6 and the survivor count under setting [7] was 0 of 6.
Regarding `O=S1(=O)OC(c2ccc(O)c(O)c2)(c2ccc(O)c(O)c2)c2ccccc21`, the survivor count by setting is: (dose: 200.0 mg/kg/injection, schedule: Q01DX009 (ip), vehicle: saline) 5 of 6; (dose: 400.0 mg/kg/injection, schedule: Q01DX009 (ip), vehicle: saline) 0 of 6; (dose: 600.0 mg/kg/injection, schedule: Q01DX009 (ip), vehicle: saline) 0 of 6.
Take `Cc1sc(NCc2ccccc2)c(C#N)c1C`: the survivor count by setting is: (dose: 50.0 mg/kg/injection, schedule: Q01DX009 (ip), vehicle: Klucel (hydroxypropylcellulose) (HPC)) 4 of 6; (dose: 200.0 mg/kg/injection, schedule: Q01DX009 (ip), vehicle: Klucel (hydroxypropylcellulose) (HPC)) 6 of 6.
Turning to `O=C1CCC2ON=C(Br)C12` (stereo not given), for the setting “dose: 160.0 mg/kg/injection, schedule: Q01DX005 (ip), vehicle: distilled water + Tween-80”, the T/C is 139 % of control.
As to `O=C1C2C3CCC(O3)C2C(=O)N1CO` (stereo not given), the survivor count under setting [9] was 3 of 6.
Regarding `C1CCNCC1.COc1ccccc1C(=O)[CH-]C(=O)C(F)(F)F.COc1ccccc1C(=O)[CH-]C(=O)C(F)(F)F.COc1ccccc1C(=O)[CH-]C(=O)C(F)(F)F.COc1ccccc1C(=O)[CH-]C(=O)C(F)(F)F.[Eu+3]`, the survivor count (dose: 100.0 mg/kg/injection, schedule: Q01DX009 (ip), vehicle: Klucel (hydroxypropylcellulose) (HPC)) is 6 of 6.
